{"source": "PubChem BioAssay AID1224830 (NIAID, 2016)", "purpose": "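Genes whose knock-down alters the TNF-alpha reporter response to LPS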 (primary screen)", "cells": "human THP-1 monocytic leukaemia cells, TNF dual-luciferase reporter clone, PMA-differentiated to macrophage-like cells", "reagents": "siRNA pool against human genes, 50 nM", "duration": "LPS for 4 h, given about 3 days after siRNA transfection", "conditions": "bacterial LPS (TLR4 ligand), 10 ng/ml", "detection": "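Ratio of firefly to renilla light, scaled to the plate median and expressed as a robust z-score per replicate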", "direction": "TNF reporter robust z-score: higher = stronger TNF reporter response to LPS", "active means": "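Each well counts as active if its z-score is over 2.8 or under -1.5; controls are left without a call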", "note": "Here is an unselected part of about 18,000 reagents. In the full data, about 2,900 (16%) were called active. 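Calls are made per well; low scores hint the gene aids the LPS response, high scores that it dampens it.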 Repeated entries: four replicate wells of each siRNA pool."}
{"gene symbol": "ZSCAN1", "TNF reporter robust z-score": 0.07, "outcome": "inactive"}
{"gene symbol": "ZSCAN1", "TNF reporter robust z-score": 1.45, "outcome": "inactive"}
{"gene symbol": "ZSCAN1", "TNF reporter robust z-score": -1.31, "outcome": "inactive"}
{"gene symbol": "ZSCAN1", "TNF reporter robust z-score": -0.54, "outcome": "inactive"}
{"gene symbol": "PILRB", "TNF reporter robust z-score": 0.09, "outcome": "inactive"}
{"gene symbol": "PILRB", "TNF reporter robust z-score": 0.06, "outcome": "inactive"}
{"gene symbol": "PILRB", "TNF reporter robust z-score": 0.51, "outcome": "inactive"}
{"gene symbol": "PILRB", "TNF reporter robust z-score": 0.33, "outcome": "inactive"}
{"gene symbol": "SORL1", "TNF reporter robust z-score": -1.69, "outcome": "active"}
{"gene symbol": "SORL1", "TNF reporter robust z-score": -0.95, "outcome": "inactive"}
{"gene symbol": "SORL1", "TNF reporter robust z-score": -1.43, "outcome": "inactive"}
{"gene symbol": "SORL1", "TNF reporter robust z-score": -1.01, "outcome": "inactive"}
{"gene symbol": "NAP1L5", "TNF reporter robust z-score": 0.26, "outcome": "inactive"}
{"gene symbol": "NAP1L5", "TNF reporter robust z-score": 0.31, "outcome": "inactive"}
{"gene symbol": "NAP1L5", "TNF reporter robust z-score": 0.39, "outcome": "inactive"}
{"gene symbol": "NAP1L5", "TNF reporter robust z-score": 0.33, "outcome": "inactive"}
{"gene symbol": "LRRC3", "TNF reporter robust z-score": -0.83, "outcome": "inactive"}
{"gene symbol": "LRRC3", "TNF reporter robust z-score": -0.12, "outcome": "inactive"}
{"gene symbol": "LRRC3", "TNF reporter robust z-score": -0.62, "outcome": "inactive"}
{"gene symbol": "LRRC3", "TNF reporter robust z-score": -0.49, "outcome": "inactive"}
{"gene symbol": "IL33", "TNF reporter robust z-score": 0.01, "outcome": "inactive"}
{"gene symbol": "IL33", "TNF reporter robust z-score": 0.79, "outcome": "inactive"}
{"gene symbol": "IL33", "TNF reporter robust z-score": 0.38, "outcome": "inactive"}
{"gene symbol": "IL33", "TNF reporter robust z-score": 1.37, "outcome": "inactive"}
{"gene symbol": "TBCK", "TNF reporter robust z-score": -0.05, "outcome": "inactive"}
{"gene symbol": "TBCK", "TNF reporter robust z-score": -0.39, "outcome": "inactive"}
{"gene symbol": "TBCK", "TNF reporter robust z-score": -0.47, "outcome": "inactive"}
{"gene symbol": "ATG16L2", "TNF reporter robust z-score": 0.59, "outcome": "inactive"}
{"gene symbol": "ATG16L2", "TNF reporter robust z-score": -0.22, "outcome": "inactive"}
{"gene symbol": "ATG16L2", "TNF reporter robust z-score": -0.3, "outcome": "inactive"}
{"gene symbol": "ATG16L2", "TNF reporter robust z-score": 0.72, "outcome": "inactive"}
{"gene symbol": "CD93", "TNF reporter robust z-score": -0.7, "outcome": "inactive"}
{"gene symbol": "CD93", "TNF reporter robust z-score": -0.84, "outcome": "inactive"}
{"gene symbol": "CD93", "TNF reporter robust z-score": -1.15, "outcome": "inactive"}
{"gene symbol": "CD93", "TNF reporter robust z-score": -0.93, "outcome": "inactive"}
{"gene symbol": "POLR1D", "TNF reporter robust z-score": 0.43, "outcome": "inactive"}
{"gene symbol": "POLR1D", "TNF reporter robust z-score": -0.02, "outcome": "inactive"}
{"gene symbol": "POLR1D", "TNF reporter robust z-score": 0.11, "outcome": "inactive"}
{"gene symbol": "POLR1D", "TNF reporter robust z-score": 0.79, "outcome": "inactive"}
{"gene symbol": "TGOLN2", "TNF reporter robust z-score": 4.82, "outcome": "active"}
{"gene symbol": "TGOLN2", "TNF reporter robust z-score": 2.42, "outcome": "inactive"}
{"gene symbol": "TGOLN2", "TNF reporter robust z-score": 3.77, "outcome": "active"}
{"gene symbol": "TGOLN2", "TNF reporter robust z-score": 5.17, "outcome": "active"}
{"gene symbol": "PRPS2", "TNF reporter robust z-score": 0.12, "outcome": "inactive"}
{"gene symbol": "PRPS2", "TNF reporter robust z-score": 1.21, "outcome": "inactive"}
{"gene symbol": "PRPS2", "TNF reporter robust z-score": 2.47, "outcome": "inactive"}
{"gene symbol": "PRPS2", "TNF reporter robust z-score": 2.03, "outcome": "inactive"}
{"gene symbol": "FAM13A", "TNF reporter robust z-score": 0.03, "outcome": "inactive"}
{"gene symbol": "FAM13A", "TNF reporter robust z-score": -0.5, "outcome": "inactive"}
{"gene symbol": "FAM13A", "TNF reporter robust z-score": -0.18, "outcome": "inactive"}
{"gene symbol": "FAM13A", "TNF reporter robust z-score": 0.02, "outcome": "inactive"}
{"gene symbol": "RCOR3", "TNF reporter robust z-score": 3.12, "outcome": "active"}
{"gene symbol": "RCOR3", "TNF reporter robust z-score": -0.35, "outcome": "inactive"}
{"gene symbol": "RCOR3", "TNF reporter robust z-score": -0.36, "outcome": "inactive"}
{"gene symbol": "RCOR3", "TNF reporter robust z-score": 0.05, "outcome": "inactive"}
{"gene symbol": "PIGB", "TNF reporter robust z-score": 1.26, "outcome": "inactive"}
{"gene symbol": "PIGB", "TNF reporter robust z-score": 0.12, "outcome": "inactive"}
{"gene symbol": "PIGB", "TNF reporter robust z-score": 0.21, "outcome": "inactive"}
{"gene symbol": "PIGB", "TNF reporter robust z-score": 1.21, "outcome": "inactive"}
{"gene symbol": "JSRP1", "TNF reporter robust z-score": 0.69, "outcome": "inactive"}
{"gene symbol": "JSRP1", "TNF reporter robust z-score": 0.73, "outcome": "inactive"}
{"gene symbol": "JSRP1", "TNF reporter robust z-score": -0.23, "outcome": "inactive"}
{"gene symbol": "JSRP1", "TNF reporter robust z-score": 0.22, "outcome": "inactive"}
